Experimental data as given in PubChem BioAssay AID1487 (National Center for Advancing Translational Sciences (NCATS), 2009).
Where “and” joins values, the source holds several entries; their conditions need not be identical. Equal values may be shown once. The list shows a part of the results. Further columns of the screen follow, without active or inactive calls. Most of these compounds were active or inconclusive in the main read-out, so they are no random draw. The note in brackets gives the kind of curve behind each potency; many fits are weak.

Assay: qHTS Assay for Modulators of Lamin A Splicing
Conditions: HeLa LMNA splicing GFP/RFP minigene ratio, 48 h
Summary of the method: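 Read-out is the ratio of GFP to DsRed2 object intensity, acquired by 488 nm laser-scanning cytometry on HeLa lamin A-EGFP minigene reporter cells. Compound incubation 48 hrs at 37 °C in Opti-MEM with 2% FBS; DMSO 0.5% final.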

[1] = measured here: GFP splicing reporter channel
[2] = measured here: RFP viability control channel

Row | Structure (SMILES) | AC50 [1] | AC50 [2]
1 | O=C1/C(=C\c2ccc3c(c2)OCO3)N2CCC1CC2 | 14.1 µM [rising, partial curve, poor fit] | 
2 | COc1cc(CC(C)N)c(OC)cc1I (stereo not drawn) |  | 0.00141 µM [falling, full curve, poor fit]
3 | Cc1cc(C(C)(C)C)cc(C)c1CC1=NCCN1 | 4.47 µM [falling, partial curve, poor fit] and 200 nM [falling, full curve, poor fit] | 7.94 µM [falling, single point]
4 | CC1CCC(C(C)C)C(OP(N)(=O)c2ccccc2)C1 (stereo not drawn) |  | 12.6 µM [rising, single point]
5 | O=P(O)(O)C(O)(Cn1ccnc1)P(=O)(O)O | 1.12 µM [falling, partial curve] | 0.631 µM [falling, single point]
6 | CCCOP(=O)(OCCC)C(Nc1cccc(C(F)(F)F)c1)c1ccc(C)cc1 (stereo not drawn) |  | 15.8 µM [rising, partial curve]
7 | COc1ccc(C(=O)C2CCCN(C3CSCCSC3)C2)cc1OC (stereo not drawn) |  | 0.158 µM [falling, full curve, poor fit]
8 | CCC1(c2ccccc2)C(=O)N(COC)C(=O)N(COC)C1=O | 2.51 µM [rising, partial curve, poor fit] | 4.47 µM [rising, partial curve, poor fit]
9 | CCOP(=O)(OCC)C(Nc1cccc(C(F)(F)F)c1)c1ccc(Br)cc1 (stereo not drawn) |  | 35.5 µM [rising, single point]
10 | C[C@]12CC[C@H](O)C[C@@H]1CC[C@H]1[C@H]2CC[C@]2(C)C(=O)CC[C@@H]12 | 0.447 µM [falling, partial curve, poor fit] | 0.501 µM [falling, partial curve, poor fit]
11 | O=C(C[N+]12CCC(CC1)C(CO)C2)c1ccc([N+](=O)[O-])cc1 (stereo not drawn) |  | 0.0708 µM [falling, full curve, poor fit]
12 | O=C(Cc1cc(=O)[nH][nH]1)N/N=C/c1cccc2ccccc12 | 0.158 µM [falling, full curve, poor fit] | 4.47 µM [falling, partial curve, poor fit]
13 | O=C(CF)NC(Nc1cccc2cccnc12)C(Cl)(Cl)Cl (stereo not drawn) |  | 1.78 µM [rising, partial curve, poor fit]
14 | CCOC(=O)C1C(C=C(C)C)C1(C)C (stereo not drawn) |  | 35.5 µM [rising, single point]
15 | CN(C)CC1CSCCC1(O)c1ccc(C(F)(F)F)cc1 (stereo not drawn) |  | 0.00794 µM [rising, full curve, poor fit]
16 | C/C=C\c1ccc(OC)cc1 | 0.0794 µM [falling, full curve, poor fit] | 0.316 µM [falling, partial curve]
17 | OC(COCc1ccc(Cl)cc1)CN1CC=C(c2ccccc2)CC1 (stereo not drawn) | 17.8 µM [rising, single point] | 20 µM [rising, single point]
18 | Cc1ccccc1NC(=O)CSc1nc2ccccc2c2nc(CCn3c(C)nc4ccccc43)nn12 | 35.5 µM [falling, single point] | 6.31 µM [falling, partial curve, poor fit]
19 | O=[N+]([O-])C(Br)(CO)CO | 35.5 µM [falling, single point] | 35.5 µM [falling, single point]
20 | CCCCCn1c(=O)c(C(=O)NCc2ccco2)c(O)c2ccccc21 |  | 28.2 µM [rising, single point]
21 | CCOc1ccc(S(=O)(=O)NCCc2sc3nc(-c4ccc(C)cc4)nn3c2C)cc1 | 0.316 µM [falling, full curve, poor fit] | 44.7 µM [falling, partial curve, poor fit]
22 | CCCCCSc1cc(O)c(C(CNC)C(C)C)cc1OC (stereo not drawn) | 11.2 µM [rising, partial curve] | 17.8 µM [rising, partial curve]
23 | Cc1ccc(-c2nc3ccccc3c(=O)n2-c2cc(C)ccn2)cc1 | 3.16 µM [falling, single point] | 5.62 µM [falling, single point]
24 | Cc1sc2ccccc2c1CC1=NCCN1 | 0.00224 µM [falling, full curve, poor fit] | 11.2 µM [falling, partial curve]
25 | CCCCn1c(O)c(/C=N/N2CCCCC2c2cccnc2)c(=O)[nH]c1=S (stereo not drawn) | 0.178 µM [falling, full curve, poor fit] | 0.2 µM [falling, full curve, poor fit]
26 | COc1cccc(CNc2ccc(S(N)(=O)=O)cc2)c1OCc1ccccc1F | 22.4 µM [rising, partial curve, poor fit] | 22.4 µM [rising, partial curve]
27 | CCN(CC)C(=O)N[C@H]1C=C2c3cccc4[nH]cc(c34)C[C@@H]2N(C)C1 | 0.447 µM [falling, full curve] | 0.01 µM [falling, full curve, poor fit]

Row | Structure (SMILES) | AC50 [1] | AC50 [2]
28 | COc1cc2c(cc1O)C[C@H]1NCCc3cc4c(c-2c31)OCO4 |  | 11.2 µM [rising, partial curve]
29 | COc1ccc(S(=O)(=O)Nc2cc([N+](=O)[O-])ccc2OC)cc1 |  | 12.6 µM [rising, single point]
30 | CN1c2ccccc2Oc2ccccc21 |  | 1.78 µM [rising, partial curve, poor fit]
31 | Cn1c(O)c(C=NC2CCCCCC2)c(=O)[nH]c1=S |  | 3.98 µM [rising, partial curve, poor fit]
32 | CC[N+]12CCC(CC1)C(=C(c1ccccc1)c1ccccc1)C2 |  | 10 µM [rising, partial curve]
33 | CCOP(=O)(OCC)c1nc(-c2cccc3ccccc23)oc1NCc1ccccc1 | 14.1 µM [rising, single point] | 17.8 µM [rising, single point]
34 | COc1cc(CNC(=O)CCCC/C=C/C(C)C)ccc1O |  | 35.5 µM [falling, single point]
35 | C[C@@H](C(=O)O)c1ccc(C(=O)c2cccs2)cc1 | 0.00794 µM [falling, full curve, poor fit] | 0.355 µM [falling, single point]
36 | CN1C[C@H](C(=O)N[C@]2(C)O[C@@]3(O)[C@@H]4CCCN4C(=O)[C@H](Cc4ccccc4)N3C2=O)C=C2c3cccc4[nH]cc(c34)C[C@H]21 |  | 11.2 µM [rising, partial curve, poor fit]
37 | NNCc1cccc(O)c1 |  | 15.8 µM [falling, partial curve, poor fit]
38 | CCOc1ccccc1-n1c(O)c(C=Nc2ccc(N(CC)CC)cc2)c(=O)[nH]c1=O |  | 35.5 µM [rising, single point]
39 | COc1cc(/C=N/Nc2ccc(S(N)(=O)=O)cc2)cc(OC)c1OC |  | 6.31 µM [rising, full curve]
40 | CCOC(=O)c1cccc(NC(=O)c2cnc(N3CCCCC3)c3ccccc23)c1 |  | 7.08 µM [falling, partial curve, poor fit]
41 | CCCN(CCC)[C@@H]1CCc2c(F)ccc(O)c2C1 |  | 2.82 µM [rising, single point]
42 | COc1cc2c(c(OC)c1OC)-c1ccc(OC)c(=O)cc1[C@H](NC(C)=O)CC2 | 0.0501 µM [falling, full curve] | 0.0794 µM [falling, full curve]
43 | CCC(=Nc1ccc(OC)cc1OC)c1c(O)n(C2CCCCC2)c(=O)[nH]c1=O | 12.6 µM [rising, partial curve] | 15.8 µM [rising, single point]
44 | CNc1cc(Cl)c2nonc2c1[N+](=O)[O-] |  | 10 µM [falling, partial curve, poor fit]
45 | Cc1cc(/C=C2\C(=O)NC(=O)N(Cc3ccccc3Cl)C2=O)c(C)n1-c1ccc(C(=O)O)cc1 |  | 0.00316 µM [falling, full curve, poor fit]
46 | Cc1ccc(N=C2N=C(N)c3ccccc32)c(C)c1 |  | 35.5 µM [rising, single point]
47 | CC1CN(c2ccc([N+](=O)[O-])cc2Cl)CCN1 (stereo not drawn) |  | 0.02 µM [falling, full curve, poor fit]
48 | CCCN(CCC)C(=O)Cc1c(-c2ccc(Cl)cc2)nc2c(Cl)cc(Cl)cn12 | 5.62 µM [falling, partial curve, poor fit] | 6.31 µM [falling, single point]
49 | O=C(CSc1nnnn1-c1ccccc1)Nc1ccc(N2CCOCC2)c(Cl)c1 | 11.2 µM [rising, partial curve] | 14.1 µM [rising, partial curve]
50 | O=C(OCCCCN1C(=O)c2ccccc2C1=O)c1ccc(Br)o1 |  | 5.62 µM [rising, single point]
51 | Cc1nn(Cc2ccccc2Cl)c(C)c1C(=O)NC1CCCc2ccccc21 (stereo not drawn) |  | 11.2 µM [rising, single point]
52 | Cc1nc(N2CCN(Cc3ccccc3)CC2)nc2c1C(=O)CC(C)C2 (stereo not drawn) |  | 20 µM [rising, single point]
53 | CCCCCCCC(=O)OCC(COC(=O)CCCCCCC)OC(=O)CCCCCCC | 0.0224 µM [rising, full curve, poor fit] | 0.0178 µM [rising, full curve, poor fit]
54 | C=CCOc1c(Cl)cc(CNc2ccc3[nH]c(=O)[nH]c3c2)cc1OC | 17.8 µM [rising, partial curve, poor fit] | 11.2 µM [rising, partial curve]

Single values from the entries so far.
AC50 [1], COc1cc2c(c(OC)c1OC)-c1ccc(OC)c(=O)cc1[C@H](NC(C)=O)CC2 is entered as 0.0501 µM [falling, full curve]
AC50 [2], CN1C[C@H](C(=O)N[C@]2(C)O[C@@]3(O)[C@@H]4CCCN4C(=O)[C@H](Cc4ccccc4)N3C2=O)C=C2c3cccc4[nH]cc(c34)C[C@H]21 is entered as 11.2 µM [rising, partial curve, poor fit]
AC50 [2], COc1cc(CNC(=O)CCCC/C=C/C(C)C)ccc1O is entered as 35.5 µM [falling, single point]
AC50 [2], COc1cc(/C=N/Nc2ccc(S(N)(=O)=O)cc2)cc(OC)c1OC is entered as 6.31 µM [rising, full curve]
